Data taken from PMC4423837.
No constants are given. Whether binding was seen depends on the method and setting. In cells and extracts the contact can be indirect. Some results given as binding are weak or reduced against the parent protein; the word gives no strength. Tags and fused reporters may be left off the sequences shown.

Protein sequences, listed by entry. Tags and fused reporters are not part of them.
UniProt Q11207: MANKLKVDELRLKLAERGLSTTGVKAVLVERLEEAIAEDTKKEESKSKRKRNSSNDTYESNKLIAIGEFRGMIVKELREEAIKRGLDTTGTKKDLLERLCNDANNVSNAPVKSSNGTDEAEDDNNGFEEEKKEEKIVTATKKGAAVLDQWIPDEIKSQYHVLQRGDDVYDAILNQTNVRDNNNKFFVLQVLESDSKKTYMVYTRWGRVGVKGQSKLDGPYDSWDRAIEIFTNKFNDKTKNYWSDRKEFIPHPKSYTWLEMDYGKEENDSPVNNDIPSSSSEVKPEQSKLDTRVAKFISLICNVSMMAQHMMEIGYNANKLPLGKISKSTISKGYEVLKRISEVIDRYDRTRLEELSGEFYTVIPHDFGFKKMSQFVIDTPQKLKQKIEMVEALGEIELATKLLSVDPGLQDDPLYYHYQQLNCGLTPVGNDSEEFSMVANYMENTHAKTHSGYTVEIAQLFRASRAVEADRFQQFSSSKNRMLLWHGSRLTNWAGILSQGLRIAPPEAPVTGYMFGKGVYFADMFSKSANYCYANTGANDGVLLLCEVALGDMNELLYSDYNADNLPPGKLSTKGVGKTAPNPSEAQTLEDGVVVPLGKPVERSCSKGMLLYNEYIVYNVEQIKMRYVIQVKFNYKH

T1: Arabidopsis PARG1 (poly(ADP-ribose) glycohydrolase 1), GFP- or myc-tagged (Arabidopsis thaliana) (UniProt Q9SKB3)
T1 sequence: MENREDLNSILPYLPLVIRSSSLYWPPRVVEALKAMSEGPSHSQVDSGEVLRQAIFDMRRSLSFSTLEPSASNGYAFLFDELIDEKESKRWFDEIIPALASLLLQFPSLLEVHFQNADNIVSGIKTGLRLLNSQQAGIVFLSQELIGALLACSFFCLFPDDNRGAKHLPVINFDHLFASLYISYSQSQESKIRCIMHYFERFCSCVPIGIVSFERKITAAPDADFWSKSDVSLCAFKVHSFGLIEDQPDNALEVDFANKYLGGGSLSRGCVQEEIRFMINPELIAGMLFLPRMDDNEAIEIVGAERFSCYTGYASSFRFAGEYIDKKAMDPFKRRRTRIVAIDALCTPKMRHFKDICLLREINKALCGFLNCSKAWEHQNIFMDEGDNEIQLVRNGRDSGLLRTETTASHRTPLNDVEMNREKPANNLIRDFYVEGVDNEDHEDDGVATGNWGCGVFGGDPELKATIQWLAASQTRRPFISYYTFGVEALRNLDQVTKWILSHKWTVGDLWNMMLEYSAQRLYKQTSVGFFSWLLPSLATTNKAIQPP

T2: Arabidopsis PARG2 (poly(ADP-ribose) glycohydrolase 2), GFP- or myc-tagged (Arabidopsis thaliana) (UniProt Q8VYA1)
T2 sequence: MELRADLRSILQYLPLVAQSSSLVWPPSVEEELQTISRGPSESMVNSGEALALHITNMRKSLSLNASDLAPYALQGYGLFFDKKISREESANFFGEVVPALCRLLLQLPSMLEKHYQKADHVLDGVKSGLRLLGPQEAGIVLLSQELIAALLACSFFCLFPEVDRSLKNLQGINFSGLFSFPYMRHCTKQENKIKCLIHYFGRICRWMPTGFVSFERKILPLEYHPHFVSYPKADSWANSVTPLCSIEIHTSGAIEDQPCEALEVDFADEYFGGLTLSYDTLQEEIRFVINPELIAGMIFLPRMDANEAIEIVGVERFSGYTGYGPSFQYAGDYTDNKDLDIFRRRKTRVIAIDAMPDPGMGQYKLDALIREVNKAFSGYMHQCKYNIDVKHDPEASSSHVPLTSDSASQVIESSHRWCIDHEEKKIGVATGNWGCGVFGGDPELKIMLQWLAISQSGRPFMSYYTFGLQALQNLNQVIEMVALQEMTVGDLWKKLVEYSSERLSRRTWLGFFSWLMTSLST


Key:
Test in all cases: co-IP; GFP- and myc-tagged proteins transiently co-expressed in N. benthamiana leaves; some samples infiltrated with 2 μg/ml bleomycin; extraction buffer 50 mM Tris-HCl pH 7.5, 150 mM NaCl, 5 mM EDTA, 0.2% Triton X-100, 10% glycerol; IP with anti-GFP at 4°C overnight, then protein A beads; blots with anti-myc and anti-GFP
[1] = target: T1, Arabidopsis PARG1 (poly(ADP-ribose) glycohydrolase 1), GFP- or myc-tagged (Arabidopsis thaliana)
[2] = target: T2, Arabidopsis PARG2 (poly(ADP-ribose) glycohydrolase 2), GFP- or myc-tagged (Arabidopsis thaliana)
[3] = target: GFP-tagged Arabidopsis PARP2 (At4g02390) (Arabidopsis thaliana) (UniProt Q11207)

Row | binding [1] | binding [2] | binding [3] | Molecule
1 | binds | binds |  | GFP-tagged Arabidopsis PARP2 (At4g02390) (from UniProt Q11207 1-637) (enzyme)
2 |  | binds |  | Arabidopsis PARG1 (poly(ADP-ribose) glycohydrolase 1), GFP- or myc-tagged (enzyme, UniProt Q9SKB3 1-548) MENREDLNSILPYLPLVIRSSSLYWPPRVVEALKAMSEGPSHSQVDSGEVLRQAIFDMRRSLSFSTLEPSASNGYAFLFDELIDEKESKRWFDEIIPALASLLLQFPSLLEVHFQNADNIVSGIKTGLRLLNSQQAGIVFLSQELIGALLACSFFCLFPDDNRGAKHLPVINFDHLFASLYISYSQSQESKIRCIMHYFERFCSCVPIGIVSFERKITAAPDADFWSKSDVSLCAFKVHSFGLIEDQPDNALEVDFANKYLGGGSLSRGCVQEEIRFMINPELIAGMLFLPRMDDNEAIEIVGAERFSCYTGYASSFRFAGEYIDKKAMDPFKRRRTRIVAIDALCTPKMRHFKDICLLREINKALCGFLNCSKAWEHQNIFMDEGDNEIQLVRNGRDSGLLRTETTASHRTPLNDVEMNREKPANNLIRDFYVEGVDNEDHEDDGVATGNWGCGVFGGDPELKATIQWLAASQTRRPFISYYTFGVEALRNLDQVTKWILSHKWTVGDLWNMMLEYSAQRLYKQTSVGFFSWLLPSLATTNKAIQPP
3 | binds | binds | binds | myc-tagged Arabidopsis PARP1 (At2g31320) (enzyme, UniProt Q9ZP54 1-983) MASPHKPWRAEYAKSSRSSCKTCKSVINKENFRLGKLVQSTHFDGIMPMWNHASCILKKTKQIKSVDDVEGIESLRWEDQQKIRKYVESGAGSNTSTSTGTSTSSTANNAKLEYGIEVSQTSRAGCRKCSEKILKGEVRIFSKPEGPGNKGLMWHHAKCFLEMSSSTELESLSGWRSIPDSDQEALLPLVKKALPAAKTETAEARQTNSRAGTKRKNDSVDNEKSKLAKSSFDMSTSGALQPCSKEKEMEAQTKELWDLKDDLKKYVTSAELREMLEVNEQSTRGSELDLRDKCADGMMFGPLALCPMCSGHLSFSGGLYRCHGYISEWSKCSHSTLDPDRIKGKWKIPDETENQFLLKWNKSQKSVKPKRILRPVLSGETSQGQGSKDATDSSRSERLADLKVSIAGNTKERQPWKKRIEEAGAEFHANVKKGTSCLVVCGLTDIRDAEMRKARRMKVAIVREDYLVDCFKKQRKLPFDKYKIEDTSESLVTVKVKGRSAVHEASGLQEHCHILEDGNSIYNTTLSMSDLSTGINSYYILQIIQEDKGSDCYVFRKWGRVGNEKIGGNKVEEMSKSDAVHEFKRLFLEKTGNTWESWEQKTNFQKQPGKFLPLDIDYGVNKQVAKKEPFQTSSNLAPSLIELMKMLFDVETYRSAMMEFEINMSEMPLGKLSKHNIQKGFEALTEIQRLLTESDPQPTMKESLLVDASNRFFTMIPSIHPHIIRDEDDFKSKVKMLEALQDIEIASRIVGFDVDSTESLDDKYKKLHCDISPLPHDSEDYRLIEKYLNTTHAPTHTEWSLELEEVFALEREGEFDKYAPHREKLGNKMLLWHGSRLTNFVGILNQGLRIAPPEAPATGYMFGKGIYFADLVSKSAQYCYTCKKNPVGLMLLSEVALGEIHELTKAKYMDKPPRGKHSTKGLGKKVPQDSEFAKWRGDVTVPCGKPVSSKVKASELMYNEYIVYDTAQVKLQFLLKVRFKHKR
